Results reported in the supplement of paper PMC6658780.
Counter-ions that a name gives are not always drawn. ± gives the standard deviation of the averaged measurements. The list shows a part of the results. Repeats in this data set agree poorly, so a single value says little.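 The A. baumannii clinical isolates were selected for resistance to the partner antibiotic; the screen seeks drugs that restore its effect. Background from coloured compounds is removed by subtracting the start-of-incubation reading.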

What was measured:
[1] = system: Acinetobacter baumannii WP-487; test: percent growth inhibition of drug alone vs DMSO control; higher = more growth inhibition; details: antibiotic (0.125x MIC): none (0.1% DMSO)
[2] = system: Acinetobacter baumannii WP-487; test: percent growth inhibition of drug + antibiotic vs DMSO control; higher = more growth inhibition; details: antibiotic (0.125x MIC): colistin

SMILES | percent growth inhibition of drug alone ([1]; 7 µM) | percent growth inhibition of drug alone ([1]; 20 µM) | percent growth inhibition ([2]; 7 µM) | percent growth inhibition ([2]; 20 µM)
O=C1CCc2ccc(OCCCCN3CCN(c4cccc(Cl)c4Cl)CC3)cc2N1 [Aripiprazole] | 1.17 ± 4.4% | 4.13 ± 2.4% |  | 
Nc1ccc(S(=O)(=O)Nc2ccc(Cl)nn2)cc1 [Sulfachloropyridazine] | 8.25 ± 1.5% | 52.9 ± 56% |  | 
CCOC1O[C@H]([C@@H](COCc2ccccc2)OCc2ccccc2)[C@H](OCc2ccccc2)[C@H]1O (stereo not given in full) [Tribenoside] | -4.06 ± 3.1% | 1.03 ± 0.34% |  | 
O=C1NCN(c2ccccc2)C12CCN(CCCC(c1ccc(F)cc1)c1ccc(F)cc1)CC2 [Fluspirilen] | 3.06 ± 0.55% | 73.3 ± 35% |  | 
CC(NCCC(c1ccccc1)c1ccccc1)c1ccccc1 (stereo not given) [Fendiline hydrochloride] | 1.4 ± 6.5% | 0.842 ± 2.8% |  | 
Nc1ccc(S(=O)(=O)c2ccc(N)cc2)cc1 [Dapsone] | 11.8 ± 6.2% | 51.7 ± 60% |  | 
CCCCCCCCNC(C)C(O)c1ccc(SC(C)C)cc1 (stereo not given) [Suloctidil] | 4.24 ± 1.4% | 7.32 ± 11% |  | 
C1CCC(C(CC2CCCCN2)C2CCCCC2)CC1 (stereo not given) [Perhexiline maleate] | 0.0517 ± 4.6% | -2.93 ± 0.15% |  | 
O=c1[nH]cnc2c1ncn2[C@H]1CC[C@@H](CO)O1 [Didanosine] | 0.136 ± 5% | -1.96 ± 2.9% | 10.2 ± 13% | 53.5 ± 65%
CCOC(=O)N1CCC(=C2c3ccc(Cl)cc3CCc3cccnc32)CC1 [Loratadine] | -1.87 ± 11% | -0.119 ± 3.1% |  | 
Nc1nc(/C(=C/CC(=O)O)C(=O)N[C@@H]2C(=O)N3C(C(=O)O)=CCS[C@H]23)cs1 [Ceftibuten] | 5.73 ± 0.076% | 7.58 ± 10% |  | 
Clc1ccc(COC(Cn2ccnc2)c2ccc(Cl)cc2Cl)c(Cl)c1 (stereo not given) [Miconazole] | -4.34 ± 4.1% | -4.33 ± 8.4% |  | 
Clc1ccccc1C(c1ccccc1)(c1ccccc1)n1ccnc1 [Clotrimazole] | -2.86 ± 4.7% | -5.99 ± 0.06% |  | 
NC[C@H]1O[C@H](O[C@H]2[C@H](O)[C@@H](O[C@H]3O[C@H](CO)[C@@H](O)[C@H](N)[C@H]3O)[C@H](N)C[C@@H]2N)[C@H](N)C[C@@H]1O [Tobramycin] | 56.6 ± 61% | 100.4 ± 0.62% | 49.9 ± 71% | 50.5 ± 70%
CCc1nn(CCCN2CCN(c3cccc(Cl)c3)CC2)c(=O)n1CCOc1ccccc1 [Nefazodone hydrochloride] | 7.46 ± 5.1% | 13.1 ± 4.4% |  | 
CC(C)(C)CC(C)(C)c1ccc(OCCOCC[N+](C)(C)Cc2ccccc2)cc1 [Benzethonium chloride] | -2.36 ± 9.7% | 1.23 ± 3.8% |  | 
CCCCOC(=O)c1ccc(N)cc1 [Butamben] | -8.07 ± 19% | -0.587 ± 0.99% |  | 
OCCN1CCN(CCCN2c3ccccc3Sc3ccc(Cl)cc32)CC1 [Perphenazine] | 4.58 ± 1% | 1.85 ± 2.1% | 16.7 ± 16% | 57 ± 61%
CCCC(C(=O)OCCN(CC)CC)(c1ccccc1)c1ccccc1 [Proadifen hydrochloride] | -0.305 ± 6% | 1.77 ± 4.8% | 3.62 ± 9.9% | 44.6 ± 50%

SMILES | percent growth inhibition of drug alone ([1]; 7 µM) | percent growth inhibition of drug alone ([1]; 20 µM) | percent growth inhibition ([2]; 7 µM) | percent growth inhibition ([2]; 20 µM)
COc1cccc2c1C(=O)c1c(O)c3c(c(O)c1C2=O)C[C@@](O)(C(C)=O)C[C@@H]3O[C@H]1C[C@H](N)[C@H](O)[C@H](C)O1 [Daunorubicin hydrochloride] | 2.62 ± 7.4% | 15.1 ± 22% | 2.11 ± 0.29% | 91.8 ± 8.1%
Clc1ccc(CSC(Cn2ccnc2)c2ccc(Cl)cc2Cl)cc1 (stereo not given) [Sulconazole nitrate] | -3.43 ± 5% | 2.88 ± 10% | 55.5 ± 51% | 58.9 ± 48%
CN[C@@H]1[C@@H](O[C@H]2O[C@H](CO)[C@@H](N)[C@H](O)[C@H]2O)OC2C[C@@H](N)[C@@H](O[C@H]3[C@H](O)[C@@H](O)[C@H](N)C[C@@H]3N)OC2[C@@H]1O (stereo not given in full) [Apramycin] | 8.33 ± 5.8% | 28.8 ± 34% | 12.1 ± 8.2% | 93.9 ± 6.6%
COc1cccc2c1C(=O)c1c(O)c3c(c(O)c1C2=O)C[C@@](O)(C(=O)CO)C[C@@H]3O[C@H]1C[C@H](N)[C@@H](O)[C@H](C)O1 [Epirubicin hydrochloride] | 12.1 ± 4.3% | 42.1 ± 57% | 3.78 ± 5.7% | 69.1 ± 38%
COC(=O)C1=C(C)NC(C)=C(C(=O)OCCN(C)Cc2ccccc2)C1c1cccc([N+](=O)[O-])c1 (stereo not given) [Nicardipine hydrochloride] | 3.82 ± 4.9% | -0.364 ± 1.8% | -5.19 ± 3.3% | 59.5 ± 55%
COc1ccc(C(=O)CC(=O)c2ccc(C(C)(C)C)cc2)cc1 [Avobenzone] | 27 ± 23% | 26.9 ± 28% | 13.6 ± 21% | 52 ± 65%
O=C(Nc1ccc([N+](=O)[O-])cc1Cl)c1cc(Cl)ccc1O [Niclosamide] | 6.93 ± 1.3% | 40 ± 67% | 54.9 ± 64% | 69.1 ± 44%
CN1CCN(CCCN2c3ccccc3Sc3ccc(Cl)cc32)CC1 [Prochlorperazine dimaleate] | 1.58 ± 3.5% | -2.73 ± 1.3% | 46.3 ± 62% | 52.8 ± 54%
CC(C)COCC(CN(Cc1ccccc1)c1ccccc1)N1CCCC1 (stereo not given) [Bepridil hydrochloride] | -0.914 ± 8.3% | -2.11 ± 0.053% | 3.43 ± 3.1% | 49.9 ± 71%
OC(c1cc(C(F)(F)F)nc2c(C(F)(F)F)cccc12)C1CCCCN1 (stereo not given) [Mefloquine hydrochloride] | 6.85 ± 1.6% | 8.36 ± 14% | 8.4 ± 22% | 60.5 ± 56%
CC[C@H](c1ccc(O)cc1)[C@@H](CC)c1ccc(O)cc1 [Hexestrol] | 0.867 ± 8.1% | -4.41 ± 2.2% | 45 ± 64% | 48.9 ± 59%
C=CCOC(Cn1ccnc1)c1ccc(Cl)cc1Cl (stereo not given) [Enilconazole] | 2.58 ± 3.5% | 6.83 ± 14% | 4.28 ± 1.6% | 50.3 ± 70%
CSc1ccc2c(c1)C(N1CCN(C)CC1)Cc1ccccc1S2 (stereo not given) [Methiothepin maleate] | 6.31 ± 2% | -0.982 ± 5.6% | 55.9 ± 51% | 51.6 ± 56%
O=c1[nH]c(=O)n([C@H]2C[C@H](O)[C@@H](CO)O2)cc1F [Floxuridine] | -0.0189 ± 8% | 1.05 ± 3.6% | 26.2 ± 41% | 51.9 ± 65%
CCSc1ccc2c(c1)N(CCCN1CCN(C)CC1)c1ccccc1S2 [Thiethylperazine dimalate] | -0.284 ± 8% | 7.9 ± 9.1% | 51 ± 56% | 53.2 ± 54%
CN(Cc1cc(Br)cc(Br)c1N)C1CCCCC1 [Bromhexine hydrochloride] | 11 ± 10% | 10.3 ± 12% | -0.256 ± 2.7% | 52.3 ± 68%
CO[C@@H]1[C@@H](O[C@@H]2O[C@H](C)[C@@H](O[C@H]3C[C@@](C)(O)[C@@H](OC(=O)CC(C)C)[C@H](C)O3)[C@H](N(C)C)[C@H]2O)[C@@H](CC=O)C[C@@H](C)[C@@H](O)/C=C/C=C/C[C@@H](C)OC(=O)C[C@H]1OC(C)=O [Josamycin] | 7.61 ± 4.7% | 14.3 ± 2.8% | 55.6 ± 51% | 66.8 ± 38%
CC(=O)N1CCN(c2ccc(OCC3COC(Cn4ccnc4)(c4ccc(Cl)cc4Cl)O3)cc2)CC1 (stereo not given) [Ketoconazole] | 1.59 ± 0.8% | -1.95 ± 1.8% | 0.648 ± 6.2% | 51.4 ± 65%
CN1CCC(=C2c3ccccc3Sc3ccccc32)CC1 [Pimethixene maleate] | 1.77 ± 7.7% | 1.56 ± 4.3% | 0.435 ± 4.3% | 53.7 ± 65%

SMILES | percent growth inhibition of drug alone ([1]; 7 µM) | percent growth inhibition of drug alone ([1]; 20 µM) | percent growth inhibition ([2]; 7 µM) | percent growth inhibition ([2]; 20 µM)
O=C1OCCN1/N=C/c1ccc([N+](=O)[O-])o1 [Furazolidone] | 0.239 ± 8.4% | 7.436 ± 0.013% | 43.5 ± 54% | 98.3 ± 2.4%
Clc1ccc(CCC(Cn2ccnc2)Sc2c(Cl)cccc2Cl)cc1 (stereo not given) [Butoconazole nitrate] | -19.8 ± 25% | -0.464 ± 6.8% | 52.2 ± 55% | 53.7 ± 54%
Clc1ccc(C(c2ccccc2Cl)C(Cl)Cl)cc1 (stereo not given) [Mitotane] | -1.08 ± 7.7% | 0.196 ± 3.3% | 3.31 ± 7.1% | 52.6 ± 64%
COc1cc(NS(=O)(=O)c2ccc(N)cc2)ncn1 [Sulfamonomethoxine] | 55.7 ± 57% | 95.6 ± 1.4% | 45.6 ± 72% | 53.9 ± 60%
COc1ccc(CN2CCN(C(c3ccc(F)cc3)c3ccc(F)cc3)CC2)c(OC)c1OC [Lomerizine hydrochloride] | 3.13 ± 4.9% | 5.88 ± 7.1% | 1.32 ± 6.9% | 54.6 ± 64%
Cc1nc2n(c(=O)c1CCN1CCC(c3noc4cc(F)ccc34)CC1)CCCC2 [Risperidone] | 5.42 ± 5.7% | 7.38 ± 8.5% | -1.45 ± 0.83% | 52.4 ± 65%
Clc1ccc(C(Cn2ccnc2)OCc2ccsc2Cl)c(Cl)c1 (stereo not given) [Tioconazole] | 0.499 ± 2.2% | 2.76 ± 10% | 55.2 ± 52% | 61.5 ± 45%
COc1cccc(N(C)C(=S)Oc2ccc3c(c2)CCCC3)n1 [Liranaftate] | 2.48 ± 3% | 0.512 ± 1.9% | 49 ± 59% | 47.9 ± 61%
CC(C)C(=O)OCC(=O)[C@@]12O[C@H](C3CCCCC3)O[C@@H]1C[C@H]1[C@@H]3CCC4=CC(=O)C=C[C@]4(C)[C@H]3[C@@H](O)C[C@@]12C [Ciclesonide] | 1.88 ± 5.1% | 5.26 ± 3.1% | 5.94 ± 19% | 36.1 ± 69%
CC/C(=C(\c1ccccc1)c1ccc(OCCN(C)C)cc1)c1ccccc1 [Tamoxifen citrate] | 2.43 ± 1.8% | 2.38 ± 7.2% | 42.2 ± 67% | 66.3 ± 39%
Clc1ccc(C(Cn2ccnc2)OCc2c(Cl)cccc2Cl)c(Cl)c1 (stereo not given) [Isoconazole] |  |  | 47.4 ± 61% | 58.7 ± 48%
C#Cc1cccc(Nc2ncnc3cc(OCCOC)c(OCCOC)cc23)c1 [Erlotinib] |  |  | -1.84 ± 1.4% | 53.4 ± 66%
CC(C)(C)C(=O)OCOC(=O)[C@@H]1N2C(=O)[C@@H](/N=C/N3CCCCCC3)[C@H]2SC1(C)C [Pivmecillinam hydrochloride] |  |  | 26 ± 28% | 49.9 ± 58%
CO[C@H]1C[C@H](O[C@H]2[C@H](C)[C@@H](O[C@@H]3O[C@H](C)C[C@H](N(C)C)[C@H]3OC(C)=O)[C@@H](C)C[C@@]3(CO3)C(=O)[C@H](C)[C@@H](OC(C)=O)[C@@H](C)[C@@H](C)OC(=O)[C@@H]2C)O[C@@H](C)[C@@H]1OC(C)=O [Troleandomycin] |  |  | 54.5 ± 52% | 58.8 ± 48%
Nc1ccc(S(=O)(=O)Nc2ccnn2-c2ccccc2)cc1 [Sulfaphenazole] |  |  | 4.31 ± 13% | 47.3 ± 70%
COC(=O)C1=C(C#N)NC(C)=C(C(=O)OC(C)C)C1c1cccc([N+](=O)[O-])c1 (stereo not given) [Nilvadipine] |  |  | -3.44 ± 3.3% | 52.1 ± 65%
CN(C)CCOc1ccc(/C(=C(/CCCl)c2ccccc2)c2ccccc2)cc1 [Toremifene] |  |  | 35.3 ± 60% | 58.4 ± 59%
CCN(CC)CCOC(=O)C1(C2CCCCC2)CCCCC1 [Dicyclomine hydrochloride] |  |  | 0.338 ± 2.5% | 51.4 ± 69%
CN1CCN(CCCN2c3ccccc3Sc3ccc(C(F)(F)F)cc32)CC1 [Trifluoperazine dihydrochloride] |  |  | 52.9 ± 54% | 49.9 ± 58%

A stretch taken from the entries so far:
SMILES | percent growth inhibition of drug alone ([1]; 7 µM) | percent growth inhibition of drug alone ([1]; 20 µM) | percent growth inhibition ([2]; 7 µM) | percent growth inhibition ([2]; 20 µM)
CC(C)C(=O)OCC(=O)[C@@]12O[C@H](C3CCCCC3)O[C@@H]1C[C@H]1[C@@H]3CCC4=CC(=O)C=C[C@]4(C)[C@H]3[C@@H](O)C[C@@]12C [Ciclesonide] | 1.88 ± 5.1% | 5.26 ± 3.1% | 5.94 ± 19% | 36.1 ± 69%
CC/C(=C(\c1ccccc1)c1ccc(OCCN(C)C)cc1)c1ccccc1 [Tamoxifen citrate] | 2.43 ± 1.8% | 2.38 ± 7.2% | 42.2 ± 67% | 66.3 ± 39%
